Here are results for 1 molecule from patent US20260021090A1, “METHODS OF ADM[…]” (Trevi Therapeutics, Inc., priority 2022, published 2026).

For this data set the following is noted: following oral administration; effect of age.

As for `Cl.Oc1ccc2c3c1OC1[C@@H](O)CC[C@@]4(O)[C@@H](C2)N(CC2CCC2)CC[C@]314` (stereo partly drawn) [nalbuphine, 17-(cyclobutylmethyl)-4,5α-epoxymorphinian-3, 6α, 14-triol, hydrochloride], the “Total systemic clearance rate” value is listed as “decreases with age”.
